{"source": "the supplement of paper PMC8728848", "test_in_all_cases": "glycan array binding signal (z-score within array); higher = stronger binding", "settings_in_all_cases": "glycan notation: IUPAC condensed, linker removed", "key": {"[1]": {"target": "Neu5Ac(a2-6)Gal", "outline": "(§1)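 Glycan array data were curated from 3228 arrays in the Consortium for Functional Glycomics database and kept only where the protein sequence was available. Glycan names were converted to IUPAC-condensed notation, and columns mapping to the same glycan were averaged. The binding signal is a within-array Z-score, averaged across arrays of the same protein sequence at different concentrations or buffers and across linkers. Negative Z-scores can be read as non-binding.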"}, "[2]": {"target": "Neu5Ac(a2-6)Gal(b1-3)GlcNAc(b1-3)[Gal(b1-4)GlcNAc(b1-6)]Gal(b1-4)Glc", "outline": "as §1"}, "[3]": {"target": "Neu5Ac(a2-6)Gal(b1-4)Glc", "outline": "as §1"}, "[4]": {"target": "Neu5Ac(a2-6)Gal(b1-4)GlcNAc", "outline": "as §1"}, "[5]": {"target": "Neu5Ac(a2-6)Gal(b1-4)GlcNAc(b1-2)Man", "outline": "as §1"}, "[6]": {"target": "Neu5Ac(a2-6)Gal(b1-4)GlcNAc(b1-2)Man(a1-3)Man(b1-4)GlcNAc(b1-4)GlcNAc", "outline": "as §1"}, "[7]": {"target": "Neu5Ac(a2-6)Gal(b1-4)GlcNAc(b1-2)Man(a1-3)[Gal(b1-4)GlcNAc(b1-2)Man(a1-6)]Man(b1-4)GlcNAc(b1-4)GlcNAc", "outline": "as §1"}, "[8]": {"target": "Neu5Ac(a2-6)Gal(b1-4)GlcNAc(b1-2)Man(a1-3)[GlcNAc(b1-2)Man(a1-6)]Man(b1-4)GlcNAc(b1-4)GlcNAc", "outline": "as §1"}, "[9]": {"target": "Neu5Ac(a2-6)Gal(b1-4)GlcNAc(b1-2)Man(a1-3)[GlcNAc(b1-2)Man(b1-4)GlcNAc(b1-2)Man(a1-6)]Man(b1-4)GlcNAc(b1-4)GlcNAc", "outline": "as §1"}, "[10]": {"target": "Neu5Ac(a2-6)Gal(b1-4)GlcNAc(b1-2)Man(a1-3)[GlcNAc(b1-4)][Neu5Ac(a2-6)Gal(b1-4)GlcNAc(b1-2)Man(a1-6)]Man(b1-4)GlcNAc(b1-4)GlcNAc", "outline": "as §1"}, "[11]": {"target": "Neu5Ac(a2-6)Gal(b1-4)GlcNAc(b1-2)Man(a1-3)[Man(a1-6)]Man(b1-4)GlcNAc(b1-4)GlcNAc", "outline": "as §1"}, "[12]": {"target": "Neu5Ac(a2-6)Gal(b1-4)GlcNAc(b1-2)Man(a1-3)[Neu5Ac(a2-3)Gal(b1-4)GlcNAc(b1-2)Man(a1-6)]Man(b1-4)GlcNAc(b1-4)GlcNAc", "outline": "as §1"}, "[13]": {"target": "Neu5Ac(a2-6)Gal(b1-4)GlcNAc(b1-2)Man(a1-3)[Neu5Ac(a2-6)Gal(b1-4)GlcNAc(b1-2)Man(a1-6)]Man(b1-4)GlcNAc(b1-4)GlcNAc", "outline": "as §1"}, "[14]": {"target": "Neu5Ac(a2-6)Gal(b1-4)GlcNAc(b1-2)Man(a1-3)[Neu5Ac(a2-6)Gal(b1-4)GlcNAc(b1-2)Man(a1-6)]Man(b1-4)GlcNAc(b1-4)[Fuc(a1-6)]GlcNAc", "outline": "as §1"}, "[15]": {"target": "Neu5Ac(a2-6)Gal(b1-4)GlcNAc(b1-2)Man(a1-6)Man(b1-4)GlcNAc(b1-4)GlcNAc", "outline": "as §1"}, "[16]": {"target": "Neu5Ac(a2-6)Gal(b1-4)GlcNAc(b1-2)Man(a1-6)[Gal(b1-4)GlcNAc(b1-2)Man(a1-3)]Man(b1-4)GlcNAc(b1-4)GlcNAc", "outline": "as §1"}, "[17]": {"target": "Neu5Ac(a2-6)Gal(b1-4)GlcNAc(b1-2)Man(a1-6)[GlcNAc(b1-2)Man(a1-3)]Man(b1-4)GlcNAc(b1-4)GlcNAc", "outline": "as §1"}, "[18]": {"target": "Neu5Ac(a2-6)Gal(b1-4)GlcNAc(b1-2)Man(a1-6)[Man(a1-3)]Man(b1-4)GlcNAc(b1-4)GlcNAc", "outline": "as §1"}, "[19]": {"target": "Neu5Ac(a2-6)Gal(b1-4)GlcNAc(b1-2)[Neu5Ac(a2-6)Gal(b1-4)GlcNAc(b1-4)]Man(a1-3)[GlcNAc(b1-4)][Neu5Ac(a2-6)Gal(b1-4)GlcNAc(b1-2)[Neu5Ac(a2-6)Gal(b1-4)GlcNAc(b1-6)]Man(a1-6)]Man(b1-4)GlcNAc(b1-4)GlcNAc", "outline": "as §1"}, "[20]": {"target": "Neu5Ac(a2-6)Gal(b1-4)GlcNAc(b1-2)[Neu5Ac(a2-6)Gal(b1-4)GlcNAc(b1-4)]Man(a1-3)[GlcNAc(b1-4)][Neu5Ac(a2-6)Gal(b1-4)GlcNAc(b1-4)Man(a1-6)]Man(b1-4)GlcNAc(b1-4)GlcNAc", "outline": "as §1"}, "[21]": {"target": "Neu5Ac(a2-6)Gal(b1-4)GlcNAc(b1-2)[Neu5Ac(a2-6)Gal(b1-4)GlcNAc(b1-6)]Man(a1-6)[Neu5Ac(a2-6)Gal(b1-4)GlcNAc(b1-2)Man(a1-3)][GlcNAc(b1-4)]Man(b1-4)GlcNAc(b1-4)GlcNAc", "outline": "as §1"}, "[22]": {"target": "Neu5Ac(a2-6)Gal(b1-4)GlcNAc(b1-3)Gal(b1-3)GlcNAc", "outline": "as §1"}, "[23]": {"target": "Neu5Ac(a2-6)Gal(b1-4)GlcNAc(b1-3)Gal(b1-4)GlcNAc", "outline": "as §1"}, "[24]": {"target": "Neu5Ac(a2-6)Gal(b1-4)GlcNAc(b1-3)Gal(b1-4)GlcNAc(b1-2)Man(a1-3)[Neu5Ac(a2-6)Gal(b1-4)GlcNAc(b1-3)Gal(b1-4)GlcNAc(b1-2)Man(a1-6)]GalNAc", "outline": "as §1"}, "[25]": {"target": "Neu5Ac(a2-6)Gal(b1-4)GlcNAc(b1-3)Gal(b1-4)GlcNAc(b1-3)Gal(b1-4)GlcNAc", "outline": "as §1"}, "[26]": {"target": "Neu5Ac(a2-6)Gal(b1-4)GlcNAc(b1-3)Gal(b1-4)GlcNAc(b1-3)Gal(b1-4)GlcNAc(b1-2)Man(a1-3)[Neu5Ac(a2-6)Gal(b1-4)GlcNAc(b1-3)Gal(b1-4)GlcNAc(b1-3)Gal(b1-4)GlcNAc(b1-2)Man(a1-6)]GalNAc", "outline": "as §1"}, "[27]": {"target": "Neu5Ac(a2-6)Gal(b1-4)GlcNAc(b1-3)Gal(b1-4)GlcNAc(b1-3)GalNAc", "outline": "as §1"}, "[28]": {"target": "Neu5Ac(a2-6)Gal(b1-4)GlcNAc(b1-3)Gal(b1-4)GlcNAc(b1-3)[Neu5Ac(a2-6)Gal(b1-4)GlcNAc(b1-3)Gal(b1-4)GlcNAc(b1-6)]GalNAc", "outline": "as §1"}, "[29]": {"target": "Neu5Ac(a2-6)Gal(b1-4)GlcNAc(b1-3)Gal(b1-4)GlcNAc(b1-6)[Gal(b1-3)]GalNAc", "outline": "as §1"}, "[30]": {"target": "Neu5Ac(a2-6)Gal(b1-4)GlcNAc(b1-3)Gal(b1-4)[Fuc(a1-3)]GlcNAc(b1-3)Gal(b1-4)[Fuc(a1-3)]GlcNAc", "outline": "as §1"}, "[31]": {"target": "Neu5Ac(a2-6)Gal(b1-4)GlcNAc(b1-3)GalNAc", "outline": "as §1"}, "[32]": {"target": "Neu5Ac(a2-6)Gal(b1-4)GlcNAc(b1-3)[Neu5Ac(a2-6)Gal(b1-4)GlcNAc(b1-6)]GalNAc", "outline": "as §1"}, "[33]": {"target": "Neu5Ac(a2-6)Gal(b1-4)GlcNAc(b1-6)GalNAc", "outline": "as §1"}, "[34]": {"target": "Neu5Ac(a2-6)Gal(b1-4)GlcNAc(b1-6)[Gal(b1-3)GlcNAc(b1-3)]Gal(b1-4)Glc", "outline": "as §1"}, "[35]": {"target": "Neu5Ac(a2-6)Gal(b1-4)GlcNAc(b1-6)[Gal(b1-3)]GalNAc", "outline": "as §1"}, "[36]": {"target": "Neu5Ac(a2-6)Gal(b1-4)GlcNAc6S", "outline": "as §1"}}, "note": "The other results are listed elsewhere or left out.", "data": [{"binder": "Flo1 (Saccharomyces cerevisiae), P32768 (protein) SGATEACLPAGQRKSGMNINFYQYSLKDSSTYSNAAYMAYGYASKTKLGSVGGQTDISIDYNIPCVSSSGTFPCPQEDSYGNWGCKGMGACSNSQGIAYWSTDLFGFYTTPTNVTLEMTGYFLPPQTGSYTFKFATVDDSAILSVGGATAFNCCAQQQPPITSTNFTIDGIKPWGGSLPPNIEGTVYMYAGYYYPMKVVYSNAVSWGTLPISVTLPDGTTVSDDFEGYVYSFDDDLSQSNCTVPDPSNY", "values": [{"measurement": "glycan array binding signal (z-score)", "setting": "[1]", "result": -0.325}, {"measurement": "glycan array binding signal (z-score)", "setting": "[2]", "result": -0.17}, {"measurement": "glycan array binding signal (z-score)", "setting": "[3]", "result": -0.397}, {"measurement": "glycan array binding signal (z-score)", "setting": "[4]", "result": -0.421}, {"measurement": "glycan array binding signal (z-score)", "setting": "[5]", "result": 0.146}, {"measurement": "glycan array binding signal (z-score)", "setting": "[6]", "result": 0.967}, {"measurement": "glycan array binding signal (z-score)", "setting": "[7]", "result": 0.002}, {"measurement": "glycan array binding signal (z-score)", "setting": "[8]", "result": 0.289}, {"measurement": "glycan array binding signal (z-score)", "setting": "[9]", "result": -0.442}, {"measurement": "glycan array binding signal (z-score)", "setting": "[10]", "result": -0.297}, {"measurement": "glycan array binding signal (z-score)", "setting": "[11]", "result": 0.393}, {"measurement": "glycan array binding signal (z-score)", "setting": "[12]", "result": -0.072}, {"measurement": "glycan array binding signal (z-score)", "setting": "[13]", "result": 0.464}, {"measurement": "glycan array binding signal (z-score)", "setting": "[14]", "result": -0.061}, {"measurement": "glycan array binding signal (z-score)", "setting": "[15]", "result": -0.065}, {"measurement": "glycan array binding signal (z-score)", "setting": "[16]", "result": -0.292}, {"measurement": "glycan array binding signal (z-score)", "setting": "[17]", "result": -0.105}, {"measurement": "glycan array binding signal (z-score)", "setting": "[18]", "result": 0.239}, {"measurement": "glycan array binding signal (z-score)", "setting": "[19]", "result": -0.043}, {"measurement": "glycan array binding signal (z-score)", "setting": "[20]", "result": 1.92}, {"measurement": "glycan array binding signal (z-score)", "setting": "[21]", "result": -0.123}, {"measurement": "glycan array binding signal (z-score)", "setting": "[22]", "result": -0.069}, {"measurement": "glycan array binding signal (z-score)", "setting": "[23]", "result": -0.761}, {"measurement": "glycan array binding signal (z-score)", "setting": "[24]", "result": -0.434}, {"measurement": "glycan array binding signal (z-score)", "setting": "[25]", "result": -0.301}, {"measurement": "glycan array binding signal (z-score)", "setting": "[26]", "result": 0.166}, {"measurement": "glycan array binding signal (z-score)", "setting": "[27]", "result": -0.113}, {"measurement": "glycan array binding signal (z-score)", "setting": "[28]", "result": -0.177}, {"measurement": "glycan array binding signal (z-score)", "setting": "[29]", "result": 1.52}, {"measurement": "glycan array binding signal (z-score)", "setting": "[30]", "result": -0.037}, {"measurement": "glycan array binding signal (z-score)", "setting": "[31]", "result": 0.748}, {"measurement": "glycan array binding signal (z-score)", "setting": "[32]", "result": -0.153}, {"measurement": "glycan array binding signal (z-score)", "setting": "[33]", "result": 0.312}, {"measurement": "glycan array binding signal (z-score)", "setting": "[34]", "result": -0.291}, {"measurement": "glycan array binding signal (z-score)", "setting": "[35]", "result": 0.705}, {"measurement": "glycan array binding signal (z-score)", "setting": "[36]", "result": 0.033}]}]}
